This assay concerns the target T1, FLAG-DGAT2 (diacylglycerol acyltransferase-2) (murine (said of the DGAT2 in BioId/DGAT2)) (UniProt Q9DCV3).
T1 sequence: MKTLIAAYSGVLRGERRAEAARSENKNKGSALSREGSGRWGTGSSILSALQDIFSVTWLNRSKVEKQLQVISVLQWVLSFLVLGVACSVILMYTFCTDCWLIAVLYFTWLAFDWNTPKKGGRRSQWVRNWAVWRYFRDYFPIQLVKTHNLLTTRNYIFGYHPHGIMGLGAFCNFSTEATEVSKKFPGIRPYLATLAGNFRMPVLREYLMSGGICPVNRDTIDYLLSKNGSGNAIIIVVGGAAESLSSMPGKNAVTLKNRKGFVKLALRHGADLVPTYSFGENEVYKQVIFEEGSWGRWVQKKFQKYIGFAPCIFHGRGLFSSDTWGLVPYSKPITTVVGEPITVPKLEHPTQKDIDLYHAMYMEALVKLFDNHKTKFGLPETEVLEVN
The assay is described as follows: co-IP; anti-FLAG agarose immunoprecipitate of HEK-293T cells expressing FL-DGAT2, solubilised with 0.5% CHAPS in PBS, 4 C, eluted with FLAG peptide; immunoblot with anti-calnexin and anti-PDI; control: cells expressing Myc-DGAT2. A general note: Immunoblotting shows a protein as a band on a membrane.

No constants are given. Whether binding was seen depends on the method and setting. Binding seen in cells or lysates may run through a third protein. Some entries that bind do so weakly or less than the wild type. Sequences can lack the tags named with a protein.

B1: calnexin (protein, UniProt P27824 21-592)
chain: HDGHDDDVIDIEDDLDDVIEEVEDSKPDTTAPPSSPKVTYKAPVPTGEVYFADSFDRGTLSGWILSKAKKDDTDDEIAKYDGKWEVEEMKESKLPGDKGLVLMSRAKHHAISAKLNKPFLFDTKPLIVQYEVNFQNGIECGGAYVKLLSKTPELNLDQFHDKTPYTIMFGPDKCGEDYKLHFIFRHKNPKTGIYEEKHAKRPDADLKTYFTDKKTHLYTLILNPDNSFEILVDQSVVNSGNLLNDMTPPVNPSREIEDPEDRKPEDWDERPKIPDPEAVKPDDWDEDAPAKIPDEEATKPEGWLDDEPEYVPDPDAEKPEDWDEDMDGEWEAPQIANPRCESAPGCGVWQRPVIDNPNYKGKWKPPMIDNPSYQGIWKPRKIPNPDFFEDLEPFRMTPFSAIGLELWSMTSDIFFDNFIICADRRIVDDWANDGWGLKKAADGAAEPGVVGQMIEAAEERPWLWVVYILTVALPVFLVILFCCSGKKQTSGMEYKKTDAPQPDVKEEEEEKEEEKDKGDEEEEGEEKLEEKQKSDAEEDGGTVSQEEEDRKPKAEEDEILNRSPRNRKPRRE
For B1, the binding entry is “binds”.

The values are drawn from publication PMC6322727.
